Here are results for 14 compounds from the supplement of paper PMC11637464.

Counter-ions that a name gives are not always drawn. The list shows a part of the results. Most values come without repeats; read them as rough.

This assay deals with primary mouse Muller glia with Ascl1 overexpression. In words: Neuronal cell count fold change vs Ascl1-only control (log2 fold change); higher = more neurogenesis. On the procedure:
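Primary P11 mouse Muller glia carrying dox-inducible Ascl1 were treated with Tocriscreen Stem Cell Library compounds at 0.1, 1 or 10 uM together with doxycycline for 5 days, then profiled by sci-Plex hashing and sci-RNA-seq2. Cells were annotated by marker genes and cell-type counts per well were size-factor adjusted. Read-outs are the log2 fold change of Neuronal (NeuPre + bipolar) and ProL cell counts versus the Ascl1-only control wells of the same collection day, plus the raw number of recovered cells per well. There is one well per dose, and wells with fewer than 20 cells were discarded.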

`Cc1ccc(/C=N/NC(=O)c2ccccc2Oc2ccccc2)o1` (collection day: 2): the “Neuronal cell count fold change” value by setting is: (0.1 µM) -0.7; (1 µM) 0; (10 µM) -0.115.

`O=C(O)C(Cc1c[nH]c2ccccc12)N1C(=O)c2ccccc2C1=O` (stereo not given) (collection day: 2): the “Neuronal cell count fold change” value came out at 0.107 (0.1 µM), 0.206 (1 µM) and 0 (10 µM).

As to `Oc1nc(-c2ccc(C(F)(F)F)cc2)nc2c1CSCC2` (collection day: 2), the “Neuronal cell count fold change” value is, setting by setting: (0.1 µM) -0.379; (1 µM) -0.7; (10 µM) -0.379.

As for `CC1(C)CCC(C)(C)c2cc(C(=O)Nc3ccc(C(=O)O)cc3)ccc21` (collection day: 1), the “Neuronal cell count fold change” value was -1.32 (0.1 µM) and -0.252 (1 µM).

`CCCC(=O)Nc1ncnc2c1ncn2[C@@H]1O[C@@H]2COP(=O)(O)O[C@H]2[C@H]1OC(=O)CCC` [Dibutyryl-cAMP, sodium salt] (collection day: 1): the “Neuronal cell count fold change” value (0.1 µM) was -0.184 and the “Neuronal cell count fold change” value (10 µM) is -1.06.

As for `c1ccc2c(Oc3nc(Nc4ccc(N5CCOCC5)cc4)c4ncn(C5CCCCC5)c4n3)cccc2c1` [Purmorphamine] (collection day: 2), the “Neuronal cell count fold change” value (0.1 µM) came out at 0.3, the “Neuronal cell count fold change” value (1 µM) is -0.241 and the “Neuronal cell count fold change” value (10 µM) is -1.12.

For `O=C(NO)c1ccc2[nH]c(=O)c(CCCc3ccccc3)nc2c1` (collection day: 2), the “Neuronal cell count fold change” value was -0.379 (0.1 µM), -1.12 (1 µM) and -1.7 (10 µM).

With `COc1ccn2ncc(-c3nc4[nH]nc(NC(=O)c5ccc(F)cc5)c4cc3F)c2c1` (collection day: 2), the “Neuronal cell count fold change” value is, setting by setting: (0.1 µM) -0.241; (1 µM) -1.12; (10 µM) -1.7.

Turning to `Cc1cccc(-c2[nH]ncc2-c2ccc3ncccc3n2)n1` (collection day: 2), the “Neuronal cell count fold change” value is 1.16 (0.1 µM), 0.469 (1 µM) and 1.21 (10 µM).

Consider `O=C(O)CCCc1ccccc1` [Sodium 4-Phenylbutyrate] (collection day: 1), for which the “Neuronal cell count fold change” value (0.1 µM) was -0.474, the “Neuronal cell count fold change” value (1 µM) amounted to 0.263 and the “Neuronal cell count fold change” value (10 µM) is -0.252.

`O=c1[nH]c(=O)n([C@H]2C[C@H](O)[C@@H](CO)O2)cc1Br` (collection day: 2): the “Neuronal cell count fold change” value is -0.7 (0.1 µM), -0.531 (1 µM) and -1.12 (10 µM).

For `NC(=O)c1ccc(-c2nc(-c3ccccn3)c(-c3ccc4c(c3)OCO4)[nH]2)cc1` (collection day: 1), the “Neuronal cell count fold change” value was -0.184 (0.1 µM), 0.485 (1 µM) and 0.566 (10 µM).

Turning to `Nc1ncnc2c1nc(Br)n2[C@@H]1O[C@@H]2COP(=O)(O)O[C@H]2[C@H]1O` [8-Bromo-cAMP, sodium salt] (collection day: 1), the “Neuronal cell count fold change” value reads like this: (0.1 µM) -0.474; (1 µM) -0.252; (10 µM) -0.737.

For `O=C(NNc1ccccc1)c1ccncc1` [PluriSln 1] (collection day: 2), the “Neuronal cell count fold change” value is 0.206 (0.1 µM), 0 (1 µM) and -0.115 (10 µM).
